This passage reports binding results from PMC8575775, “Structural basis of the interaction between SETD2 methyltransferase and hnRNP L paralogs for governing co-transcriptional splicing” (Nature Communications, 2021).

Sequences of proteins named here, by UniProt entry; tags and fusion partners are left off. A change or cut given only in a name is not applied to a line headed by its entry.
UniProt Q9BYW2: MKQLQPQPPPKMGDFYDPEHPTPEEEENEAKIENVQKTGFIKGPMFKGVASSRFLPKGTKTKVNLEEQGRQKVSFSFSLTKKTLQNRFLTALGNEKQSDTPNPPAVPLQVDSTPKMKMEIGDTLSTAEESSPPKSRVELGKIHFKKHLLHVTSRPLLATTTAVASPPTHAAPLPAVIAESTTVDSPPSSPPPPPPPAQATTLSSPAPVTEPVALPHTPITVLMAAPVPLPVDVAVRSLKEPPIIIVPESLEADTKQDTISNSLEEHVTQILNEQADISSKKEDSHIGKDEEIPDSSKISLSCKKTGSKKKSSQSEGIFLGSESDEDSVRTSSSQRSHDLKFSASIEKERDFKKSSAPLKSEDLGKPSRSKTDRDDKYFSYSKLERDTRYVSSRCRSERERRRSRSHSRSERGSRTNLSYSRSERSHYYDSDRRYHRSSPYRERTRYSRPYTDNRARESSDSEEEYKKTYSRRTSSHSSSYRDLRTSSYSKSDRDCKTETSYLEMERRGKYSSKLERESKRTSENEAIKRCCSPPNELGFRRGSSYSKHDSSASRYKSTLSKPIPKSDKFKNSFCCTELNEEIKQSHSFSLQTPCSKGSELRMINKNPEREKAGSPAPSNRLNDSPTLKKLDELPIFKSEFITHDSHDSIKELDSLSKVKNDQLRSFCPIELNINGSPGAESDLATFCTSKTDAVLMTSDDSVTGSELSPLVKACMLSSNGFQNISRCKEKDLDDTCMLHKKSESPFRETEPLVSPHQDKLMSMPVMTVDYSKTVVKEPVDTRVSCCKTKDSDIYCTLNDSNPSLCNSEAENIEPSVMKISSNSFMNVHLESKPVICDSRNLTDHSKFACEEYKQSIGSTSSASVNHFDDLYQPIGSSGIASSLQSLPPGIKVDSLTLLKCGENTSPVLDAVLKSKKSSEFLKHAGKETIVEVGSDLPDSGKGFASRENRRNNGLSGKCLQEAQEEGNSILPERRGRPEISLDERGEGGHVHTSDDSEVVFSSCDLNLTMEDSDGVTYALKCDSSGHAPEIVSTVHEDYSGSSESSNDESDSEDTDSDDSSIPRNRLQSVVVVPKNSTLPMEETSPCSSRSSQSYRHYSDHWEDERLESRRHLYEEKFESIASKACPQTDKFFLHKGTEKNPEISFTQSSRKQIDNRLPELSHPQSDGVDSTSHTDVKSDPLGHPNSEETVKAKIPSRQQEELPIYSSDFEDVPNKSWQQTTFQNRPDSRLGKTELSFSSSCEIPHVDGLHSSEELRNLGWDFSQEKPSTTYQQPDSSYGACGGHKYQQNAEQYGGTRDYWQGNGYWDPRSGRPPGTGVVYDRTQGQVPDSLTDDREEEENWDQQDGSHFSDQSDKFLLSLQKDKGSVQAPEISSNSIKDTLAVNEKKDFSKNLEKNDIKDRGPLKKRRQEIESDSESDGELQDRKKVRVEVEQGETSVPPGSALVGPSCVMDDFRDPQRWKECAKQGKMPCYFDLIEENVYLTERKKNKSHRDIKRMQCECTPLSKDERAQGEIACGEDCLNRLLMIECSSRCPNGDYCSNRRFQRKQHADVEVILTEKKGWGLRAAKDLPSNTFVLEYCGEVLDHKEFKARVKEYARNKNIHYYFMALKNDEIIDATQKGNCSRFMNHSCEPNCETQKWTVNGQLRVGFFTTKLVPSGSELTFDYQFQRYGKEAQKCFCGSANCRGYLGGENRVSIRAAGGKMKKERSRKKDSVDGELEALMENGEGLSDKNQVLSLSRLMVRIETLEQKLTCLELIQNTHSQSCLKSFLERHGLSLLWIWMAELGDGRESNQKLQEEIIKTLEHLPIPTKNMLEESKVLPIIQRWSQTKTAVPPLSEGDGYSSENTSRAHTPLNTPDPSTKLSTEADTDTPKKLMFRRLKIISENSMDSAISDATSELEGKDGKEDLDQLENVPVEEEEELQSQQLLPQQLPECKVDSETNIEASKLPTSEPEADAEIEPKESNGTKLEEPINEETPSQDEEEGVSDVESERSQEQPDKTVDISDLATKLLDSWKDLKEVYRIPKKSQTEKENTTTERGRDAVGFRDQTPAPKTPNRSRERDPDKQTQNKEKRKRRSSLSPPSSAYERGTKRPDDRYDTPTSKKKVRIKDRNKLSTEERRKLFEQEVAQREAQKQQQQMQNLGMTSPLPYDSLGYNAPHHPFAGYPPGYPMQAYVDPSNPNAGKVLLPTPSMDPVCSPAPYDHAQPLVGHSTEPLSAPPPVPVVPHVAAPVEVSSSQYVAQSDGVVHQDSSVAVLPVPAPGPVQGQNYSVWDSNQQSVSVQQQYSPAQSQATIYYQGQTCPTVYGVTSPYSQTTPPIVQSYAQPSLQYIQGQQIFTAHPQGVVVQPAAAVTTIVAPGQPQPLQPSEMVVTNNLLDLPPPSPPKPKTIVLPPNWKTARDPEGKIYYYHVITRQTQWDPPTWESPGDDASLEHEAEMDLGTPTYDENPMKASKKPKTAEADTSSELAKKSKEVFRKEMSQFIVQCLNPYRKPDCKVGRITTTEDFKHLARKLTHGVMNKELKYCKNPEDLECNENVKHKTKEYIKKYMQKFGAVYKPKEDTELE

These are yes or no findings as the source states them, for the method shown. Binding seen in cells or lysates may run through a third protein. Binding calls can cover weak binding; strength is not graded here.

Test [1] addresses Halo-SETD2CΔSHI 4 (human) (UniProt Q9BYW2). As to the kind of experiment: pull-down; Halo-tagged bait expressed in 293T cells, captured from extracts on Magne HaloTag beads (wash 300 mM NaCl), eluted with TEV protease; endogenous preys seen by western blotting and silver staining; for SETD2CΔSRI with and without RNase treatment. (In general: Immunoblotting shows a protein as a band on a membrane.)

Test [2] deals with Halo-SETD2CΔSHI 5 (human) (UniProt Q9BYW2). The description is as above.

B1: hnRNP L (endogenous) (protein, UniProt P14866 1-589)
chain: MSRRLLPRAEKRRRRLEQRQQPDEQRRRSGAMVKMAAAGGGGGGGRYYGGGSEGGRAPKRLKTDNAGDQHGGGGGGGGGAGAAGGGGGGENYDDPHKTPASPVVHIRGLIDGVVEADLVEALQEFGPISYVVVMPKKRQALVEFEDVLGACNAVNYAADNQIYIAGHPAFVNYSTSQKISRPGDSDDSRSVNSVLLFTILNPIYSITTDVLYTICNPCGPVQRIVIFRKNGVQAMVEFDSVQSAQRAKASLNGADIYSGCCTLKIEYAKPTRLNVFKNDQDTWDYTNPNLSGQGDPGSNPNKRQRQPPLLGDHPAEYGGPHGGYHSHYHDEGYGPPPPHYEGRRMGPPVGGHRRGPSRYGPQYGHPPPPPPPPEYGPHADSPVLMVYGLDQSKMNCDRVFNVFCLYGNVEKVKFMKSKPGAAMVEMADGYAVDRAITHLNNNFMFGQKLNVCVSKQPAIMPGQSYGLEDGSCSYKDFSESRNNRFSTPEQAAKNRIQHPSNVLHFFNAPLEVTEENFFEICDELGVKRPSSVKVFSGKSERSSSGLLEWESKSDALETLGFLNHYQMKNPNGPYPYTLKLCFSTAQHAS
As for B1, the binding result in test [1] and in test [2] was “binds” throughout.
